No constants are given. Whether binding was seen depends on the method and setting. Binding seen in cells or lysates may run through a third protein. Some entries that bind do so weakly or less than the wild type. For part of these data: Sequences can lack the tags named with a protein.
T1: HA-WIPI2d (UniProt Q9Y4P8)
T1 sequence: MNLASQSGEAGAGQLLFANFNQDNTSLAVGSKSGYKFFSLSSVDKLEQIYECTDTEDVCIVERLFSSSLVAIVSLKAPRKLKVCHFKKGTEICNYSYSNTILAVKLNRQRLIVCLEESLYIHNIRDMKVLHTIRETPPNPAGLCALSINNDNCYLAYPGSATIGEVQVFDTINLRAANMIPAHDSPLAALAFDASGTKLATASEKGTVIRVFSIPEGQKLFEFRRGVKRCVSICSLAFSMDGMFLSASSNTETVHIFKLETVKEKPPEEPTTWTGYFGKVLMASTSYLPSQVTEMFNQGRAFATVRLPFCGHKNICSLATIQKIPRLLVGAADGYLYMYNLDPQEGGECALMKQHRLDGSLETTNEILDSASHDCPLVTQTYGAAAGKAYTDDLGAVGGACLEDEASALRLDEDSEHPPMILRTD


Experiments:
EGFR (HEK293T lysate) = EGFR (HEK293T lysate) (UniProt P00533); experiment: co-IP
HA-WIPI2d = molecular target: T1, HA-WIPI2d; experiment: co-IP

binding (EGFR (HEK293T lysate))	binding (HA-WIPI2d)	Molecule
binds	–	HRS (HEK293T lysate, Extended Data Fig. 8e) (from UniProt O14964 1-777)
–	binds	3×FLAG-Rubicon (1–972) (protein, UniProt Q92622 1-972) MRPEGAGMELGGGEERLPEESRREHWQLLGNLKTTVEGLVSTNSPNVWSKYGGLERLCRDMQSILYHGLIRDQACRRQTDYWQFVKDIRWLSPHSALHVEKFISVHENDQSSADGASERAVAELWLQHSLQYHCLSAQLRPLLGDRQYIRKFYTDAAFLLSDAHVTAMLQCLEAVEQNNPRLLAQIDASMFARKHESPLLVTKSQSLTALPSSTYTPPNSYAQHSYFGSFSSLHQSVPNNGSERRSTSFPLSGPPRKPQESRGHVSPAEDQTIQAPPVSVSALARDSPLTPNEMSSSTLTSPIEASWVSSQNDSPGDASEGPEYLAIGNLDPRGRTASCQSHSSNAESSSSNLFSSSSSQKPDSAASSLGDQEGGGESQLSSVLRRSSFSEGQTLTVTSGAKKSHIRSHSDTSIASRGAPESCNDKAKLRGPLPYSGQSSEVSTPSSLYMEYEGGRYLCSGEGMFRRPSEGQSLISYLSEQDFGSCADLEKENAHFSISESLIAAIELMKCNMMSQCLEEEEVEEEDSDREIQELKQKIRLRRQQIRTKNLLPMYQEAEHGSFRVTSSSSQFSSRDSAQLSDSGSADEVDEFEIQDADIRRNTASSSKSFVSSQSFSHCFLHSTSAEAVAMGLLKQFEGMQLPAASELEWLVPEHDAPQKLLPIPDSLPISPDDGQHADIYKLRIRVRGNLEWAPPRPQIIFNVHPAPTRKIAVAKQNYRCAGCGIRTDPDYIKRLRYCEYLGKYFCQCCHENAQMAIPSRVLRKWDFSKYYVSNFSKDLLIKIWNDPLFNVQDINSALYRKVKLLNQVRLLRVQLCHMKNMFKTCRLAKELLDSFDTVPGHLTEDLHLYSLNDLTATRKGELGPRLAELTRAGATHVERCMLCQAKGFICEFCQNEDDIIFPFELHKCRTCEECKACYHKACFKSGSCPRCERLQARREALARQSLESYLSDYEEEPAEALALEAAVLEAT
–	no binding	3×FLAG-Rubicon (1-625, 761–972) (protein, UniProt Q92622) MRPEGAGMELGGGEERLPEESRREHWQLLGNLKTTVEGLVSTNSPNVWSKYGGLERLCRDMQSILYHGLIRDQACRRQTDYWQFVKDIRWLSPHSALHVEKFISVHENDQSSADGASERAVAELWLQHSLQYHCLSAQLRPLLGDRQYIRKFYTDAAFLLSDAHVTAMLQCLEAVEQNNPRLLAQIDASMFARKHESPLLVTKSQSLTALPSSTYTPPNSYAQHSYFGSFSSLHQSVPNNGSERRSTSFPLSGPPRKPQESRGHVSPAEDQTIQAPPVSVSALARDSPLTPNEMSSSTLTSPIEASWVSSQNDSPGDASEGPEYLAIGNLDPRGRTASCQSHSSNAESSSSNLFSSSSSQKPDSAASSLGDQEGGGESQLSSVLRRSSFSEGQTLTVTSGAKKSHIRSHSDTSIASRGAPESCNDKAKLRGPLPYSGQSSEVSTPSSLYMEYEGGRYLCSGEGMFRRPSEGQSLISYLSEQDFGSCADLEKENAHFSISESLIAAIELMKCNMMSQCLEEEEVEEEDSDREIQELKQKIRLRRQQIRTKNLLPMYQEAEHGSFRVTSSSSQFSSRDSAQLSDSGSADEVDEFEIQDADIRRNTASSSKSFVSSQSFSHCFLHSTSRVLRKWDFSKYYVSNFSKDLLIKIWNDPLFNVQDINSALYRKVKLLNQVRLLRVQLCHMKNMFKTCRLAKELLDSFDTVPGHLTEDLHLYSLNDLTATRKGELGPRLAELTRAGATHVERCMLCQAKGFICEFCQNEDDIIFPFELHKCRTCEECKACYHKACFKSGSCPRCERLQARREALARQSLESYLSDYEEEPAEALALEAAVLEAT

From doi:10.1101/2024.05.08.593233
